According to the supplement of paper PMC7666118:
The list shows a part of the results.

Amino acid sequences for entries named in this document (tags omitted). A change or cut given only in a name is not applied to a line headed by its entry.
UniProt Q9Y619: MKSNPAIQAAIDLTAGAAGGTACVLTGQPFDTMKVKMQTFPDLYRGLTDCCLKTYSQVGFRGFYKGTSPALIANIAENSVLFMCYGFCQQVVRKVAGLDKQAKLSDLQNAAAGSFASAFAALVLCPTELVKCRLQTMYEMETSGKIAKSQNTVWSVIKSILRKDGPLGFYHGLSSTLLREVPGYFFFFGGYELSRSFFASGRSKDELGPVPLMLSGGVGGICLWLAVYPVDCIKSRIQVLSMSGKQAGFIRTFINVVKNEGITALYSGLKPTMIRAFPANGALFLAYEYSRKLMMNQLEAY
UniProt O95347, whole entry: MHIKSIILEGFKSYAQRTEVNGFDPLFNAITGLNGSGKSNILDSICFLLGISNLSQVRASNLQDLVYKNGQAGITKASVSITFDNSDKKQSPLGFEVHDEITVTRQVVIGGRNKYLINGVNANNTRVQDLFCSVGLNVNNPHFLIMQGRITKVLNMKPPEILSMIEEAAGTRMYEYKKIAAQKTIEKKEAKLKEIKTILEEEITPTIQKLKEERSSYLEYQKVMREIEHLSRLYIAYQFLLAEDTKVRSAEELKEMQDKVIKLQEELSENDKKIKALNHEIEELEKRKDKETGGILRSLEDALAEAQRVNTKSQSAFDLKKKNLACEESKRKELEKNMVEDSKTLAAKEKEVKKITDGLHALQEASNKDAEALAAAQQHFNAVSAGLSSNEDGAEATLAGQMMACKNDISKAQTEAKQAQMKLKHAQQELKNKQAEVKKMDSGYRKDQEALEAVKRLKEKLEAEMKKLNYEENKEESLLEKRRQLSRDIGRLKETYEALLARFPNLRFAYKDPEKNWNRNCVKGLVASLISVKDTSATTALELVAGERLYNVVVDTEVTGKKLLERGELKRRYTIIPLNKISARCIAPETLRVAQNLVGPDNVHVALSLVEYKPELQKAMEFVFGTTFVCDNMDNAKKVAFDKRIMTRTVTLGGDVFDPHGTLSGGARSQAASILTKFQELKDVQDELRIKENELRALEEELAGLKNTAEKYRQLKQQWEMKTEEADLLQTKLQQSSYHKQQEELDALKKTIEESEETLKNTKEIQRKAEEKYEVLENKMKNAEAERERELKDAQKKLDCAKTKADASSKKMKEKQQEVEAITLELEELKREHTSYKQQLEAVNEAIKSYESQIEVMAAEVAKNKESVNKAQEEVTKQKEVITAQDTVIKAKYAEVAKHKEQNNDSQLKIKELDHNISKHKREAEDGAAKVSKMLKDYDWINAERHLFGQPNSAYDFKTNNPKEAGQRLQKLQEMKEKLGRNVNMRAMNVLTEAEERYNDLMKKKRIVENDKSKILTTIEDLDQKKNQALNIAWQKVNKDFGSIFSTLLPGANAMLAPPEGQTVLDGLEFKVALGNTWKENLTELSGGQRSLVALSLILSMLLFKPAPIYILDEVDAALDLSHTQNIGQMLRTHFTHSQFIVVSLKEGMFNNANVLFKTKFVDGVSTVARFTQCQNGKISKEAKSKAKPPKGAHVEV
UniProt Q53H47: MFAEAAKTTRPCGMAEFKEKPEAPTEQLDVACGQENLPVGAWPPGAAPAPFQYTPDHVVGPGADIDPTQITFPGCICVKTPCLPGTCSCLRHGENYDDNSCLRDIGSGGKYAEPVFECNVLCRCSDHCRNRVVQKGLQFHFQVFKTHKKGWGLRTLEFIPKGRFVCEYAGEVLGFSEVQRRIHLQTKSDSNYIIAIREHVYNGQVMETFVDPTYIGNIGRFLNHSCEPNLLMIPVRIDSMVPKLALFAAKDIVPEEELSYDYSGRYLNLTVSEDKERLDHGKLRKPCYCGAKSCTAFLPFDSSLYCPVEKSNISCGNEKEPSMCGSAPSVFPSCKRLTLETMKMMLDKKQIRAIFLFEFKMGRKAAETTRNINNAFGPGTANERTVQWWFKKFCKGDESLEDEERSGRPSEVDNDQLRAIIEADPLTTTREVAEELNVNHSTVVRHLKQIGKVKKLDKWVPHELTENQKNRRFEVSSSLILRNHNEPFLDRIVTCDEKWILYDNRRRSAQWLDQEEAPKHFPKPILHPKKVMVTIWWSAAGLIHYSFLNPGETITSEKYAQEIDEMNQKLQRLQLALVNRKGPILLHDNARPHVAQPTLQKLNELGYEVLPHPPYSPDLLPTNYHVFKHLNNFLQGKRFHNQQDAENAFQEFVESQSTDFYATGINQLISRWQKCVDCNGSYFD
UniProt Q8NBW4: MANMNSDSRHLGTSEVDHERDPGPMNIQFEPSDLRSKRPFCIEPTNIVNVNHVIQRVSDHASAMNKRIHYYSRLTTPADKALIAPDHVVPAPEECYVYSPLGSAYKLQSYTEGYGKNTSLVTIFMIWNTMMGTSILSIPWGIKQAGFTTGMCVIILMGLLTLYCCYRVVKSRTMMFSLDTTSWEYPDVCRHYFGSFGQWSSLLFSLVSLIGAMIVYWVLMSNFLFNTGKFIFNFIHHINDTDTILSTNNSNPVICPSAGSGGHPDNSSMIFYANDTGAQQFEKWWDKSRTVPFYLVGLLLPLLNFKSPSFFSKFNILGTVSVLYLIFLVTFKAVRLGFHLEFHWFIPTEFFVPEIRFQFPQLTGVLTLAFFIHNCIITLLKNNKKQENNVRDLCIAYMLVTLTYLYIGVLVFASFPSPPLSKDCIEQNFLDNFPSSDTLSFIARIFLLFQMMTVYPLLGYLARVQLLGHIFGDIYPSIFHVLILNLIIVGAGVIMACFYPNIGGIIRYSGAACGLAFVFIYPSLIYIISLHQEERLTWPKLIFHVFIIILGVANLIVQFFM
UniProt Q9Y371: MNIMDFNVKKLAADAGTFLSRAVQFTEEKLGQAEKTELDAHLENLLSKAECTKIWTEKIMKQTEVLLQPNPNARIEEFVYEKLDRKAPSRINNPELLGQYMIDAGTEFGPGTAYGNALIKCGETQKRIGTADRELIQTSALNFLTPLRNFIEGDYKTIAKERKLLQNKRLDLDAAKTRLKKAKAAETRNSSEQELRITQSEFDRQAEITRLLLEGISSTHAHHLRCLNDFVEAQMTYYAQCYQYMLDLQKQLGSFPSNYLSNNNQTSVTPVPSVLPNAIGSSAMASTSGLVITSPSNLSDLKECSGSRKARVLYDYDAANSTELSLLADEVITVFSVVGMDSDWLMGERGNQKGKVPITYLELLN
UniProt P63208, whole entry: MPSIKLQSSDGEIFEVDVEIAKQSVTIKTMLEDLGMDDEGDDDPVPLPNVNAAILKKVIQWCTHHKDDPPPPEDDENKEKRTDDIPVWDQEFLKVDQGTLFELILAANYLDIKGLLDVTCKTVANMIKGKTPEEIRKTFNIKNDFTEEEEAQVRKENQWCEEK
UniProt Q7Z614: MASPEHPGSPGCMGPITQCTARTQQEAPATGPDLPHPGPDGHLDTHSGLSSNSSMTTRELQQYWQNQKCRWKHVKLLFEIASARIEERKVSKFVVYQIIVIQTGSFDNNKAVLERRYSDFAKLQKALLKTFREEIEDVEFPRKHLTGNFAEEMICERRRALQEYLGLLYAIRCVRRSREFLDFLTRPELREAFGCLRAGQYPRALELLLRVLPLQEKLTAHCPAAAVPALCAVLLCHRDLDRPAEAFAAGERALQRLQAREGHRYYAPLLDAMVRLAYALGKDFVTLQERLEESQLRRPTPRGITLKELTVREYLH
UniProt Q00325: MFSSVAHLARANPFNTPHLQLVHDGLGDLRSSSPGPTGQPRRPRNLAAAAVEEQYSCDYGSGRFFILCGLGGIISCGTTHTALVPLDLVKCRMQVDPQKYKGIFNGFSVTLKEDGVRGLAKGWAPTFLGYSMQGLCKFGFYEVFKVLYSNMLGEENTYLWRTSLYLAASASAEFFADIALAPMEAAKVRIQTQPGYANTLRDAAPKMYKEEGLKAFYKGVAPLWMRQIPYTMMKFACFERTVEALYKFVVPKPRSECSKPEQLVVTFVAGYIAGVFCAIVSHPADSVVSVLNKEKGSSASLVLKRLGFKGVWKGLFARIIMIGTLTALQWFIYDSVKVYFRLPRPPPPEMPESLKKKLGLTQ
UniProt P30825: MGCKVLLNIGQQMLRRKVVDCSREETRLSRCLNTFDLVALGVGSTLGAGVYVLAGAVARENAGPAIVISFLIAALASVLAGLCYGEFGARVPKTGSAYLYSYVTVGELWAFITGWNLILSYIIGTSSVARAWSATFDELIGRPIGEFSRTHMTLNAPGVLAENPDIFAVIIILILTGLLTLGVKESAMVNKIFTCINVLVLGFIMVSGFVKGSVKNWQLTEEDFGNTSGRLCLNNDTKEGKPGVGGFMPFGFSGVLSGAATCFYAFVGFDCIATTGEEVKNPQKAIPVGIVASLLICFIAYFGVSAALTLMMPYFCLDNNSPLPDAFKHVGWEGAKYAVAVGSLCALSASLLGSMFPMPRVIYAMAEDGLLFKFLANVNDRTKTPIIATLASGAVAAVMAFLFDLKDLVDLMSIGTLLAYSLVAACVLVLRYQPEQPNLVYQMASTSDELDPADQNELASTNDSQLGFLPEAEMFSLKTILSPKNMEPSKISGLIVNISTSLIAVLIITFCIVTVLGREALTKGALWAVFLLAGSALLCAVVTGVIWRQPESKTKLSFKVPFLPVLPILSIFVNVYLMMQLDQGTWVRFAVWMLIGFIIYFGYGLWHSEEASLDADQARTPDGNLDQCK
UniProt Q99808: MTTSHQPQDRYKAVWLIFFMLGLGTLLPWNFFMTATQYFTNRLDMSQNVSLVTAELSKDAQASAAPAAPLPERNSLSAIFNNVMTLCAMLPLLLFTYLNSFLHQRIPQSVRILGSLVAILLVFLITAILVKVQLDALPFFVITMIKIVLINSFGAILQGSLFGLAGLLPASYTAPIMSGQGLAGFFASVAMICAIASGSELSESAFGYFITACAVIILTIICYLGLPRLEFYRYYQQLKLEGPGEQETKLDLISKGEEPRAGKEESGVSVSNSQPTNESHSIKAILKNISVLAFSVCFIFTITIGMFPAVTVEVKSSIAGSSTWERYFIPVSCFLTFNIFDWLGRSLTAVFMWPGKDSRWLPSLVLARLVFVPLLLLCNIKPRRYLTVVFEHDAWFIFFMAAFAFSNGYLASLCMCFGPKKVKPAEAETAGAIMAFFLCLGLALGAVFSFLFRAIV
UniProt Q96EQ0: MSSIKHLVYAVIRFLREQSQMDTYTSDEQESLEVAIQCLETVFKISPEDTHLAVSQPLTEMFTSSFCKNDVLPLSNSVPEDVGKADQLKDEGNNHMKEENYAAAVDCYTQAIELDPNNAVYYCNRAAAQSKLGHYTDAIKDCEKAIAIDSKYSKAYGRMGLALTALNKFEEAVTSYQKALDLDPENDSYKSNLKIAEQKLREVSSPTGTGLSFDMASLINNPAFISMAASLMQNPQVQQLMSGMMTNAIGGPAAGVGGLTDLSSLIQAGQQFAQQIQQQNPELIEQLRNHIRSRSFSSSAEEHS
UniProt Q15477, whole entry: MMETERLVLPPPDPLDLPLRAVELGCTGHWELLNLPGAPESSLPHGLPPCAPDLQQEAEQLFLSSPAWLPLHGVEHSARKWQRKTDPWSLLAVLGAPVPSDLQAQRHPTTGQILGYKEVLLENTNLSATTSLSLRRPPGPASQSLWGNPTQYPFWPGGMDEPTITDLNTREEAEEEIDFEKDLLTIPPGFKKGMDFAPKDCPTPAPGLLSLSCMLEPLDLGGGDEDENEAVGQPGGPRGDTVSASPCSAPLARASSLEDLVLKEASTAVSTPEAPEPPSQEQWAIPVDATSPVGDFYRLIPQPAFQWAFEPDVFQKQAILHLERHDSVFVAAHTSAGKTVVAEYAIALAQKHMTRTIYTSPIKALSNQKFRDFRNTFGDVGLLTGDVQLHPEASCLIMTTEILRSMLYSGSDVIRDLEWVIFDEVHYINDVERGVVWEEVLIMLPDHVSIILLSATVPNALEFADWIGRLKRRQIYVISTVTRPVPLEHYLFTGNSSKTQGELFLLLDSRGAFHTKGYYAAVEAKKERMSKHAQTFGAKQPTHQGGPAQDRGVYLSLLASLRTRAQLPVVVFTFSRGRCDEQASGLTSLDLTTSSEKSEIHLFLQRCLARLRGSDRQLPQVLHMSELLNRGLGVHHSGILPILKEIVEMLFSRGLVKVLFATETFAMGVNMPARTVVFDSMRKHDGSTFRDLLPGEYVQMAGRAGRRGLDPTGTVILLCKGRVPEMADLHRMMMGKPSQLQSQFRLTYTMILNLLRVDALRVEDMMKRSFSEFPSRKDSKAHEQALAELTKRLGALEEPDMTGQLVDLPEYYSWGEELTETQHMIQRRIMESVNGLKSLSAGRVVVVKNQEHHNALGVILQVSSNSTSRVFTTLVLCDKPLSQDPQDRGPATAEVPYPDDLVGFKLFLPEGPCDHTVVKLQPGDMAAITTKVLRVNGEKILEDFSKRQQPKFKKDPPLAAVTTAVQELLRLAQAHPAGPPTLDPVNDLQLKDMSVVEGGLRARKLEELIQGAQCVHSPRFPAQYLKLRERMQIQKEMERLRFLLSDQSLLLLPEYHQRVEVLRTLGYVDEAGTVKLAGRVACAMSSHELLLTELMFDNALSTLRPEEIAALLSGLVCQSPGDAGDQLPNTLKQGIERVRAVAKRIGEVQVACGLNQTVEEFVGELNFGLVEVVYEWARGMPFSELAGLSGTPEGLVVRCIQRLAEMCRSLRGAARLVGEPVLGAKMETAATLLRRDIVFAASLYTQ

compound: COc1ccc(Cn2ccc3cc(C)c(C(=O)NO)cc32)cc1; assay: dose-dependent thermal stabilisation call (2D-TPP, DLPTP, 10% FDR) (binary (1 = stabilised)); higher = stabilised by the compound; conditions: system: HL-60 intact cells; concentration range 0.04-10 µM
Description: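 2D thermal proteome profiling in intact HL-60 cells treated with BRD-3811 (0, 0.04, 0.29, 2, 10 uM) for 90 min at 37 C, then heated 3 min at one of 12 temperatures (42-63.9 C). Soluble protein was quantified by TMT10 MS. The value is the DLPTP call of the paper: dose-dependent thermal stabilisation over all temperatures at 10% FDR (F-test of a dose-response against a flat model); one experiment, one call per tested protein.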

Target	dose-dependent thermal stabilisation call
SLC25A15 (UniProt Q9Y619)	inactive: 0
SMTN (UniProt P53814)	inactive: 0
SIAH1 (UniProt Q8IUQ4)	inactive: 0
SF4 (UniProt Q8IWZ8)	inactive: 0
SFXN1 (UniProt Q9H9B4)	inactive: 0
SNX8 (UniProt Q9Y5X2)	inactive: 0
SLC45A3 (UniProt Q96JT2)	inactive: 0
SLC1A5 (UniProt Q15758)	inactive: 0
SESN2 (UniProt P58004)	inactive: 0
SIDT2 (UniProt Q8NBJ9)	inactive: 0
SKAP2 (UniProt O75563)	inactive: 0
SLAIN2 (UniProt Q9P270)	inactive: 0
SFRS7 (UniProt Q16629)	inactive: 0
SLC25A38 (UniProt Q96DW6)	inactive: 0
SLC12A2 (UniProt P55011)	inactive: 0
SMC2 (UniProt O95347)	inactive: 0
SLC25A33 (UniProt Q9BSK2)	inactive: 0
SETMAR (UniProt Q53H47)	inactive: 0
SH3BGRL3 (UniProt Q9H299)	inactive: 0
SLC38A9 (UniProt Q8NBW4)	inactive: 0

Single entries from the entries so far:
dose-dependent thermal stabilisation call, SIAH1 (UniProt Q8IUQ4) is entered as inactive: 0
dose-dependent thermal stabilisation call, SIDT2 (UniProt Q8NBJ9) is entered as inactive: 0

(listing goes on)

Target	dose-dependent thermal stabilisation call
SF3B4 (UniProt Q15427)	inactive: 0
SLC39A11 (UniProt Q8N1S5)	inactive: 0
SH3GLB1 (UniProt Q9Y371)	inactive: 0
SKP1 (UniProt P63208)	inactive: 0
SH3GLB2 (UniProt Q9NR46)	inactive: 0
SNRPD1 (UniProt P62314)	inactive: 0
SMC1A (UniProt Q14683)	inactive: 0
SLAIN1 (UniProt Q8ND83)	inactive: 0
SNX20 (UniProt Q7Z614)	inactive: 0
SMG5 (UniProt Q9UPR3)	inactive: 0
SLC25A3 (UniProt Q00325)	inactive: 0
SLC2A5 (UniProt P22732)	inactive: 0
SLC7A1 (UniProt P30825)	inactive: 0
SLC4A1AP (UniProt Q9BWU0)	inactive: 0
SLC29A1 (UniProt Q99808)	inactive: 0
SGTB (UniProt Q96EQ0)	inactive: 0
SMARCC1 (UniProt Q92922)	inactive: 0
SMYD3 (UniProt Q9H7B4)	inactive: 0
SH3BP1 (UniProt Q9Y3L3)	inactive: 0
SKIV2L (UniProt Q15477)	inactive: 0
